Test results published in paper PMC9064986.
Results are given in words; binding and its absence hold for the method and conditions named.

T1: Recombinant human BMP10 growth factor (GF)-domain (R&D Systems) (human) (UniProt O95393)
T1 sequence: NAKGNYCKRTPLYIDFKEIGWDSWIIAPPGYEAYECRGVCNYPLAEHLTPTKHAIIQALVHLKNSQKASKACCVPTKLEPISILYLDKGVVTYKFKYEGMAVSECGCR


target: T1, Recombinant human BMP10 growth factor (GF)-domain (R&D Systems) (human); test: SPR; Biacore T200; BMP10 GF-domain amine-coupled to a CM5 chip (1300 RU); ALK1-Fc, BMPRII-Fc or monomeric BMPRII WT and mutant ECDs injected at 40 ul/min; 10 mM HEPES pH 7.4, 150 mM NaCl, 3.4 mM EDTA, 0.5 mg/ml BSA, 0.005% P20, 25 °C; 1:1 model, KD = kd/ka; both purified

binding | Binder
no binding | BMPRII ECD Y67C (domain or fragment, UniProt Q13873-1 27-150) SQNQERLCAFKDPYQQDLGIGESRISHENGTILCSKGSTCCGLWEKSKGDINLVKQGCWSHIGDPQECHYEECVVTTTPPSIQNGTYRFCCCSTDLCNVNFTENFPPPDTTPLSPPHSFNRDET
no binding | BMPRII ECD G83E (domain or fragment, UniProt Q13873-1 27-150) SQNQERLCAFKDPYQQDLGIGESRISHENGTILCSKGSTCYGLWEKSKGDINLVKQECWSHIGDPQECHYEECVVTTTPPSIQNGTYRFCCCSTDLCNVNFTENFPPPDTTPLSPPHSFNRDET
no binding | BMPRII ECD G68D (domain or fragment, UniProt Q13873-1 27-150) SQNQERLCAFKDPYQQDLGIGESRISHENGTILCSKGSTCYDLWEKSKGDINLVKQGCWSHIGDPQECHYEECVVTTTPPSIQNGTYRFCCCSTDLCNVNFTENFPPPDTTPLSPPHSFNRDET
